No constants are given. Whether binding was seen depends on the method and setting. Binding seen in cells or lysates may run through a third protein. Some results given as binding are weak or reduced against the parent protein; the word gives no strength. For some assays here: Sequences can lack the tags named with a protein.

By UniProt entry, the sequences of proteins in these tests, tags left out. Where a name states a change or a piece, a line headed by the entry shows the natural chain unless it says otherwise.
UniProt Q13546: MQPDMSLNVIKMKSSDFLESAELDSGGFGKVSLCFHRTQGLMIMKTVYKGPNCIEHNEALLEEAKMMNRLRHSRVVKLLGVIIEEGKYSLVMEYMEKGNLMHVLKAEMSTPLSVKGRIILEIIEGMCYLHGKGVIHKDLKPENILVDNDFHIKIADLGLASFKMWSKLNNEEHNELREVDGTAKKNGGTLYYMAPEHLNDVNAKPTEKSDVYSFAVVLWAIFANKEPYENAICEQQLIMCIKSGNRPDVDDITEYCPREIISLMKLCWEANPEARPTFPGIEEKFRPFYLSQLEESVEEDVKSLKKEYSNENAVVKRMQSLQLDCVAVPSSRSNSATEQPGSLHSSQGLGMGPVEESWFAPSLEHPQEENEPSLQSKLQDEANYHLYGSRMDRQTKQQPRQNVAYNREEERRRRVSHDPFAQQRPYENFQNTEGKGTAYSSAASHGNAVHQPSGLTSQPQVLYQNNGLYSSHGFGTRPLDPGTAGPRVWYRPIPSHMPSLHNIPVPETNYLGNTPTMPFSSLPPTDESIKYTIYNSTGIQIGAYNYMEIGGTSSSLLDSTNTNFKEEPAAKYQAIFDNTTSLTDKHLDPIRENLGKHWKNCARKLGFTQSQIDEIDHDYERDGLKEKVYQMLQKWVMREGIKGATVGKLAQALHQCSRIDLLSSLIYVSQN
UniProt P78560: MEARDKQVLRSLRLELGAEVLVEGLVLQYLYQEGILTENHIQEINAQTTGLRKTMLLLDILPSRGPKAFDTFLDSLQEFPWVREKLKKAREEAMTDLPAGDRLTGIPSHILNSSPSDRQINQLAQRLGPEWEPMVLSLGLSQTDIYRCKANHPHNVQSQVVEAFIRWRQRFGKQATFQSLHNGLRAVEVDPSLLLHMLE

One experiment concerns the target T1, FLAG-CED-3 (C. elegans) (UniProt P42573).
T1 sequence (looked up): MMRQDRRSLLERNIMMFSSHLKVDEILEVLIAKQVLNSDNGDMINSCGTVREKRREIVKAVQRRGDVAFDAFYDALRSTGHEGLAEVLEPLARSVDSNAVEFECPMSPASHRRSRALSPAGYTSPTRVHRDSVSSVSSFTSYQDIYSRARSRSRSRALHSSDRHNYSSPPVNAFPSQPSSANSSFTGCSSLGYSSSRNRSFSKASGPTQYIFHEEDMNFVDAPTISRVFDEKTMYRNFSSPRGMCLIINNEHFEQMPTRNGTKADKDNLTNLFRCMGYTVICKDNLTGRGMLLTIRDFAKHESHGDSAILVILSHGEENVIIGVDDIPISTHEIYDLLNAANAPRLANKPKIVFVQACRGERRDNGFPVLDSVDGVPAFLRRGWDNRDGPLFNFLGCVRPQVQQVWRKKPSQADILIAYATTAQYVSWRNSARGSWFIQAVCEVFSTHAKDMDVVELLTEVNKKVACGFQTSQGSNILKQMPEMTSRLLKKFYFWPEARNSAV
In words: co-immunoprecipitation from cotransfected 293 cells, anti-FLAG.

For a further experiment, the target named is Myc-RIP (human) (UniProt Q13546). In words: co-immunoprecipitation from transfected 293 cells, anti-FLAG, anti-myc immunoblot.

As for AU1-RAIDD (from UniProt P78560 1-199), the binding entry with FLAG-CED-3 (C. elegans) was “binds”.
For the substance FLAG-RAIDD (from UniProt P78560 1-199), the binding entry in the experiment with Myc-RIP (human) is “binds”.

Source of the values: patent US20030096288A1 (Human Genome Sciences, published 2003).
